One may read the AC50 as the concentration at which the activity in the assay is half-maximal.

SMILES strings stand for the structures. Some of the results follow. Shown are side measurements of this screen, not its main read-out; they come without a call. Compounds called inactive in the main read-out are mostly missing here. Words in brackets tell the shape of the fitted curve; partial curves, single points and poor fits give uncertain potencies.

We go through 62 compounds from PubChem BioAssay AID493014 (National Center for Advancing Translational Sciences (NCATS), 2011).

The assay is described as follows: qHTS Assay to Find Inhibitors of Chronic Active B-Cell Receptor Signaling. The following applies: ABC-DLBCL IkBa-CBG/CBR reporter, luminescence ratio (green luciferase fused to IkBa over red control in TMD8 lymphoma cells), 4 h. In a few lines:
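Doxycycline induced both beetle luciferases in TMD8 lymphoma cells; IKK-driven degradation limits the IkappaBalpha-fused green signal, while red luminescence normalises for cell number and nonspecific effects. Compounds tested up to 46 uM, 4 hrs.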
For orientation: qHTS replaces the single test concentration by a dilution series.

Setting [1] is: measured here: CBR red luminescence, cell number.
The mark [2] stands for this setting: measured here: IkBa-CBG green luminescence.

Regarding `O=C(CCS(=O)(=O)c1ccc(Cl)cc1)Nc1ccccc1Br`, the half-maximal activity concentration (AC50) under setting [1] was 22.4 µM [rising, single point]. For the compound `COc1cc(C(CCN2CCOCC2)c2c(OC)cc(OC)c3c(C)cc(=O)oc23)cc(OC)c1OC` (stereo unspecified), the concentration at half-maximal activity (AC50) under setting [1] is 35.5 µM [falling, single point].

As for `C/C(=N/NC(=O)c1cc(-c2cccc([N+](=O)[O-])c2)n[nH]1)c1ccc(Cl)cc1`, the AC50 under setting [1] is 1.03 µM [rising, full curve, poor fit]. Same read-out and setting: then `Cc1ccc(NC(=O)c2cc(-c3ccc(F)cc3)on2)cc1C`, with 0.355 µM [falling, full curve]; and `CCOc1ccc2nc(NC(=O)CSc3ccc(Cl)cc3)sc2c1`, with 20.6 µM [rising, partial curve, poor fit]; and `N#CC1=C(SCC(=O)c2ccc(Br)cc2)NC2=C(C(=O)CCC2)C1c1ccco1` (stereo unspecified), with 11.2 µM [falling, partial curve]. As for `CC(=O)c1ccc(NC(=O)COC(=O)Cc2ccsc2)cc1`, the AC50 under setting [1] is 2.06 µM [rising, partial curve, poor fit]. As for `CCNC(=S)N/N=C(\C)c1ccc(N2CCOCC2)cc1`, the AC50 under setting [1] is 9.2 µM [falling, partial curve]. On the same count and under the same terms, then `CSCCC(NC(=O)c1ccco1)C(=O)N1CCCC(C(F)(F)F)C1` (stereo unspecified), with 0.146 µM [falling, full curve, poor fit]; and `COc1cc2cc(CN(Cc3cccs3)C(=S)Nc3ccccc3)c(=O)[nH]c2cc1OC`, with 3.26 µM [falling, full curve, poor fit]. Still for that read-out and setting: the value for `O=C(COC(=O)C1=COCCO1)Nc1ccc(Br)cc1Br` was 3.66 µM [rising, full curve, poor fit]; that for `CN(C)c1ccc2nc3c(=O)[nH]c(=O)nc-3n(CC(O)C(O)C(O)CO)c2c1` (stereo unspecified) was 22.4 µM [rising, single point]. For `CCCCC1CCC(C(=O)Nc2ccc(S(=O)(=O)Nc3nccs3)cc2)CC1` (stereo unspecified), the AC50 under setting [1] is 4.61 µM [falling, partial curve, poor fit].

For `COc1ccccc1-c1c(C)nn2c(N3CCN(c4ccc(F)cc4)CC3)cc(C)nc12`, the AC50 under setting [1] was 10 µM [falling, partial curve, poor fit]. As for `O=C(c1ccccc1)c1ccc(OCCCN2CCCCC2)cc1`, the half-maximal activity concentration (AC50) under setting [1] was 5.17 µM [rising, partial curve, poor fit]. For the compound `CCC/C=N/Nc1nc2ccccc2s1`, the AC50 under setting [1] was 12.6 µM [falling, partial curve]. Take `Cc1cccc(Nc2nc(N3CCCCC3)nc(N3CCCCC3)n2)c1`: the AC50 under setting [1] is 32.6 µM [rising, single point]. Consider `CCOC(=O)N1C=CC=C[C@@H]2[C@@H](N3C(=O)c4ccccc4C3=O)C(=O)N21`, for which the AC50 under setting [1] was 2.59 µM [rising, full curve]. The same measure, in the same setting: then `COc1ccc2nc(C)cc(N3CC(C)OC(C)C3)c2c1` (stereo unspecified), with 3.66 µM [falling, full curve, poor fit]. For the compound `COc1ccc(C(=O)N(Cc2nc(-c3ccc(C)cc3)no2)C2CCCCC2)cc1OC`, the AC50 under setting [1] is 2.91 µM [rising, partial curve, poor fit].

With `Fc1ccc(CN2CCN(c3ncnc4scc(-c5ccccc5)c34)CC2)cc1`, under setting [1], the half-maximal activity concentration (AC50) was 35.5 µM [falling, partial curve, poor fit]. Still for that read-out and setting: then `O=C(Nc1ccc2ncccc2c1)c1cccc(Br)c1`, with 20 µM [falling, single point]. Consider `COC(=O)[C@H](Cc1ccccc1)N1C/C=C\COc2c(Cl)cc(Cl)cc2S1(=O)=O`, for which the AC50 under setting [2] is 5.8 µM [rising, partial curve, poor fit].

Turning to `COc1ccc(C)cc1NC(=O)c1ccc(N(C)S(C)(=O)=O)cc1`, the half-maximal activity concentration (AC50) under setting [1] was 16.4 µM [rising, single point]. Still for that read-out and setting: then `CC1(C)Cc2c(sc3c2C(=O)N(c2ccccc2)C2=NCCN23)CS1`, with 0.1 µM [rising, full curve, poor fit]; and `C/C(CC(=O)Nc1ccc(N(C)C)cc1)=N\NC(=O)c1ccc(Cl)cc1`, with 28.2 µM [falling, single point]. For the compound `O=C(CNc1cc(S(=O)(=O)N2CCOCC2)ccc1N1CCCC1)N1CCc2ccccc21`, the AC50 under setting [1] is 10 µM [rising, partial curve].

Take `COc1cccc(NC(=O)Cn2c(=O)oc3ccccc32)c1`: the AC50 under setting [1] is 5.8 µM [falling, full curve, poor fit]. On to `CCc1nnc(NC(=O)C(C)Sc2ccccc2)s1` (stereo unspecified), for which the AC50 under setting [1] is 16.4 µM [rising, partial curve].

With `CCCc1nc(-c2ccc(-c3ccc(F)cc3)cc2)no1`, under setting [1], the concentration at half-maximal activity (AC50) is 6.31 µM [rising, partial curve, poor fit]. In the case of `Cc1cc(C(=O)CSc2nc3ccccc3o2)c(C)n1CC1CCCO1` (stereo unspecified), under setting [1], the half-maximal activity concentration (AC50) was 20.6 µM [rising, single point]. Still for that read-out and setting: then `O=C(CN1CCOCC1)Nc1cc([N+](=O)[O-])ccc1Cl`, with 17.8 µM [rising, partial curve, poor fit].

In the case of `CC(=O)c1ccc(OCc2cc(C(=O)NC(C)c3cnn(C)c3)no2)cc1` (stereo unspecified), the half-maximal activity concentration (AC50) under setting [1] was 28.2 µM [rising, single point]. Regarding `CCCn1c(CN2CCCCC2C)nc2c1c(=O)n(C)c(=O)n2C` (stereo unspecified), under setting [1], the AC50 was 20.6 µM [falling, partial curve, poor fit]. As for `Cc1c(S(=O)(=O)N2CCN(c3cccc(C(F)(F)F)c3)CC2)c(=O)n(C)c(=O)n1C`, the AC50 under setting [1] is 0.291 µM [rising, full curve, poor fit]. `Cc1nn(CCO)c(N)c1C1(O)C(=O)Nc2c(Cl)cc(Cl)cc21` (stereo unspecified): the AC50 under setting [1] is 22.4 µM [rising, single point] and the AC50 under setting [2] is 35.5 µM [falling, single point]. As for `COc1cccc(C2CC(c3ccc(Br)cc3)=NN2C(=O)c2ccncc2)c1OC` (stereo unspecified), the AC50 under setting [1] is 12.6 µM [falling, partial curve]. `COc1ccc(C2=NC(C)(C)Cc3cc(OC)c(OC)cc32)cc1OC`: the AC50 by setting is: under setting [1], 14.1 µM [rising, partial curve, poor fit]; under setting [2], 11.2 µM [falling, partial curve].

For the compound `O=C(/C=C/C=C/c1ccccc1)c1ccco1`, under setting [1], the AC50 was 35.5 µM [falling, single point]. Take `N#CC1=C(S)N(c2ccc(F)cc2)C2(CCCCC2)NC1=O`: the AC50 under setting [2] is 35.5 µM [falling, single point].

With `CC(=O)N1CCOc2ccc(S(=O)(=O)NCC3CCC(C(=O)Nc4ccc(C)cn4)CC3)cc21` (stereo unspecified), the AC50 under setting [1] is 14.1 µM [falling, single point]. For `COc1ccccc1NC(=O)c1nn(-c2ccccc2)ccc1=O`, the AC50 under setting [1] was 18.4 µM [falling, partial curve, poor fit].

As to `COc1cc(NC(=O)c2ccc(Cl)cc2Cl)ccc1-c1cc2ccccc2oc1=O`, the AC50 under setting [1] was 3.55 µM [rising, single point]. On the same count and under the same terms, the value for `NC(Cc1ccccc1)C(O)(c1ccccc1)c1ccccc1` (stereo unspecified) was 35.5 µM [falling, single point]. In the case of `COc1ccc(C(=O)C2CCN(C(=S)Nc3ccc(F)cc3)CC2)cc1`, under setting [1], the AC50 was 22.4 µM [rising, single point]. As to `CCOC(=O)C1CCN(S(=O)(=O)Cc2ccc(Cl)cc2)CC1`, the AC50 under setting [2] is 3.26 µM [rising, partial curve, poor fit].

For the compound `COc1ccc(S(=O)(=O)N2CCN(CCc3ccccc3)CC2)cc1`, the AC50 under setting [1] is 2 µM [rising, partial curve]. For the compound `CCc1ccc(N(CC(=O)NCc2cccnc2)S(=O)(=O)c2ccccc2)cc1`, under setting [1], the concentration at half-maximal activity (AC50) was 6.31 µM [falling, partial curve, poor fit]. As to `O=[N+]([O-])c1ccc(CSc2nnc(-c3cccnc3)o2)cc1`, under setting [1], the AC50 is 25.1 µM [rising, single point]. Still for that read-out and setting: the value for `Nc1nc(C23CC4CC(CC(C4)C2)C3)[nH]c(=O)n1` was 3.98 µM [rising, full curve, poor fit]. For the compound `Cc1ccc(Cn2c(CO)cnc2SCC(=O)Nc2cccc(F)c2)cc1`, the AC50 under setting [1] is 5.01 µM [rising, full curve, poor fit]. Regarding `Cc1ccc(NC(=O)CCn2c(=S)oc3ccccc32)cc1F`, the AC50 under setting [1] was 35.5 µM [rising, single point]. `COc1ccc(-c2nn(C)c(=O)c3ccccc23)cc1NC(=O)Cn1nc(C)c2ccccc2c1=O`: the half-maximal activity concentration (AC50) under setting [1] is 29.1 µM [falling, single point].

On to `COc1ccc(Nc2cc(C(=O)NCc3ccco3)c3ccccc3n2)c(OC)c1`, for which the AC50 reads like this: under setting [1], 5.8 µM [falling, partial curve]; under setting [2], 3.26 µM [rising, partial curve, poor fit]. For the compound `C=CCC[C@@H](Cc1ccc(F)cc1)C(=O)OC[C@@H](NC(=O)[C@H](CC=C)CC(=O)N(CCO)Cc1ccccc1)c1ccccc1`, the AC50 under setting [1] was 4.61 µM [falling, partial curve] and the AC50 under setting [2] is 5.8 µM [rising, partial curve, poor fit]. Take `CCOCc1nc(C)c(Cl)c(NS(=O)(=O)c2ccc(N)cc2)n1`: the concentration at half-maximal activity (AC50) under setting [1] was 0.0058 µM [rising, full curve, poor fit]. Take `Cc1cc(OCC(=O)NC2CC(C)(C)NC(C)(C)C2)c(C)cc1Br`: the half-maximal activity concentration (AC50) under setting [1] was 11.2 µM [falling, single point]. `COC(=O)c1cc(C)sc1NC(=O)CC1Nc2ccccc2NC1=O` (stereo unspecified): the AC50 under setting [1] is 35.5 µM [falling, single point].

Consider `Cc1ccc(/C=N/NC(=S)Nc2cccc(S(=O)(=O)N(C)C)c2)o1`, for which the half-maximal activity concentration (AC50) under setting [1] was 35.5 µM [falling, single point]. Consider `COc1ccc(C(CNC(=O)c2ccccc2SC)N(C)C)cc1` (stereo unspecified), for which, under setting [1], the AC50 was 11.2 µM [falling, partial curve].

Regarding `N#CC1=C(N)N2C(=C(C#N)C1c1ccc(Br)cc1)Nc1ccccc12` (stereo unspecified), the AC50 under setting [1] is 2.31 µM [falling, partial curve, poor fit]. The same measure, in the same setting: the value for `COc1ccc(CN=C(Nc2ccccc2)SC2CC(=O)NC2=O)cc1` (stereo unspecified) was 35.5 µM [falling, single point].
